Data published in the supplement of paper PMC5949888.
Most values lie at the floor of the assay. Slopes are relative: functional sequences can read slightly below zero.

These substances were tested on Saccharomyces cerevisiae PS128 hsf1 delta, HSF1(1-493) fusion (assay: growth estimate (transactivation domain function in HSF1 fusion, heat-shock survival) (a.u. (slope of normalised read count over time)); higher = stronger growth at 37°C, i.e. more transactivation activity). Settings: library: random library.
Experimental: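 Random 60-nt DNA library encoding peptides of up to 20 aa, fused to the C-terminus of yeast HSF1 residues 1-493 (C-terminal TAD deleted) and expressed from the native HSF1 promoter on a CEN plasmid in hsf1-deleted S. cerevisiae PS128. Cells were selected at 37°C on -trp 5-FOA plates for 0, 2, 4, 6 and 8 days and amplicons were sequenced. Growth estimate is the slope of a robust linear fit of total-sum-normalised read counts (normalised to the first time point) over time, using at least 2 replicates. Sequences are classed functional (TAD activity) above a threshold of -0.13, set from stop-codon control sequences.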

Substance	growth estimate
VGALLGGMGFSSMSHPDFFG	< -0.25
FRGIAWGGIRGSILTAQFYT	< -0.25
GGRNSIGLCGNLIC	< -0.25
VKPGCYVMVGGACQRSCAPG	< -0.25
PRFNGAAVCLRSECWLENEG	< -0.25
YALRINAIVPVLNTQYFQDH	< -0.25
NCHSMLGASIMCL	-0.167
TIPAMLSMWHEKAWLRTSHK	-0.246
VVESCPREVRGITARLMTRA	< -0.25
GRAGMRGG	< -0.25
VSCESAVCAGPGLDIP	-0.246
RSQTQAHKL	< -0.25
RYRQERATH	< -0.25
YGV	< -0.25
AGRENHRVWEGWSWPETVSE	-0.0372
AVTVLEHSGPGGPTPTLLAF	< -0.25
VCCGYLLRLRAV	< -0.25
NTEFTHQQSKVPNISAVRGS	< -0.25
HAWPHVNGTARQRAR	< -0.25
WEKGVNIHPTDQSVNG	< -0.25
RNYGFSLRGMGTDRELMD	< -0.25
LAETGRWCPYARCE	< -0.25
GLEASKGKMGPTDCSVR	< -0.25
AGA	< -0.25

Substance	growth estimate
QAGY	< -0.25
VRLSTRSYRES	< -0.25
SILLYVSIGFQ	< -0.25
YIEFYLSR	< -0.25
IVLLLVPIRSASIPPKMATR	< -0.25
RLGLFIPVECVGVLVGLCSA	< -0.25
VSAHCVNVRRSVCVESITGA	< -0.25
ILGPAGLAPS	< -0.25
TRLLFGVLPNFRAKC	< -0.25
MVLFSTVISQQASRGIAGFA	-0.246
SSRKLWSKCLYREQGCIFVP	< -0.25
SNWRAWYYQSKVCVSYGKGR	< -0.25
NTPQ	< -0.25
PKGPLSLHSTCKAHPFCTLP	< -0.25
CPACMTPIHRMIIWLDSRAP	< -0.25
LLPKSPVEEAGSCSG	< -0.25
SGTMRACRINLKLTGCEAKP	-0.246
PSSVGRLVGVTI	< -0.25
KLNREVGYRVLIYGPPATKS	< -0.25
IGSRHRDRCGIGRRPFAHRC	< -0.25
KIETRIQTSGL	< -0.25
QERPVQWVSGSGLRLGTGCT	< -0.25
LVVARDGVVRTKSKFMGLRD	< -0.25
RSRPIGHSGNSQGVVSFRIK	-0.229

Retrieved one by one from above, 7 records:
Substance	growth estimate
VKPGCYVMVGGACQRSCAPG	< -0.25
YALRINAIVPVLNTQYFQDH	< -0.25
TRLLFGVLPNFRAKC	< -0.25
TIPAMLSMWHEKAWLRTSHK	-0.246
NTPQ	< -0.25
AGA	< -0.25
VSAHCVNVRRSVCVESITGA	< -0.25

Later entries

Substance	growth estimate
DPVRKHAARSGLDVRIKHNN	< -0.25
SLRNPPEDR	< -0.25
GVSRDQESV	< -0.25
YLGKGSR	< -0.25
CINRMLSRRVNFPSL	< -0.25
NRG	< -0.25
WSREQWTLLQA	< -0.25
FPFFRLRVAGHC	< -0.25
SCNSDGTKPRPLSSFKGLVA	< -0.25
AQSGVVQTGTVP	< -0.25
YGFVGVTSRCLGAKRLLIHA	< -0.25
GLCKHVQD	< -0.25
PPSLKASRN	< -0.25
SVIRLFPQGVTDFGWNRGTR	< -0.25
NVFASWQLDMLPARSDLYGA	< -0.25
GRETRVTGSRPRDTGAPRPL	< -0.25
PVGRGPRVLFKRRGSIRACP	< -0.25
LLVVHPYVD	< -0.25
APRPTSDCTS	< -0.25
SAADGKRLHRSRR	< -0.25
FVRQTSSLMDWMLSSVISAL	< -0.25
YNGQVGQHPTDVPSGPEGPT	< -0.25
FVE	< -0.25
KVAAAAFF	-0.231

Copied from the results shown for reference:
Substance	growth estimate
RNYGFSLRGMGTDRELMD	< -0.25
LAETGRWCPYARCE	< -0.25

The results go on.

Substance	growth estimate
GGSAGLVNDGRCGSDVHCRS	< -0.25
CGPQEVV	< -0.25
GPFPWHCTR	< -0.25
ADTSWLKSGTGYWSGLL	-0.197
LCIVACTRLRNADLLSGAVT	< -0.25
RILCR	< -0.25
GSIGFKLHN	< -0.25
KYKEQGKSKDLPMNTALVPY	< -0.25
TTRLFVKFKE	< -0.25
MQGGE	< -0.25
KKSGAGGIPATRTSAGGYSM	< -0.25
TSRVSDALLTSTEFGGLLGG	< -0.25
SDKPHGSLMDSISTMRVRGD	< -0.25
FLYEYGSVLL	8.31
LDTLRGRGARRFFVQRGAII	< -0.25
DALLQSDAPQFSQR	< -0.25
IGG	-0.231
TGRARRLRSPCNNSGRGFFY	< -0.25
LITCFVSRGGRDPVCLPISL	< -0.25
RVGCTLLVTRIPPRFVSSVA	< -0.25
SRDSRGL	< -0.25
KTW	-0.243
GGRVLGRSRSRLTLIYSTLR	< -0.25
RMRCPLVLQSGATRRFTRSR	< -0.25

Substance	growth estimate
RAIEDQLRRFQANQGVLEKE	< -0.25
PLYRQLQLCEYPATHGFCPA	< -0.25
QSVVCARVGPYATLHQCALL	< -0.25
FSPNFVYP	< -0.25
TVKFGLGNPASNMVGRPPSA	< -0.25
DVCVPGVRESHALPAGFCRI	< -0.25
TDAGVDQGSGSARSATWLNR	< -0.25
LRVPV	< -0.25
AGGANDMAWRSREITTSLPH	< -0.25
IEKRGKSARVRHHHLPRRME	< -0.25
LNSWVVSRWLRVGICCRRPT	< -0.25
CLDSDRPAQD	< -0.25
QFCA	< -0.25
DCLAYLCSRFYRVACVRLKR	< -0.25
FKPRGASARVRCIARVKSAE	< -0.25
VGLHSSLGPIWQRYEVSLER	< -0.25
DCIESVNVPHLLR	< -0.25
NRTQFVHCFR	< -0.25
VGNTPYMTLNEYATPRTTLR	< -0.25
NCGRGGQSSG	-0.245
LGSGLSRFAAPLEGRHCIPR	< -0.25
MGRTSSIH	< -0.25
KHVRLHGYPLPVRRTDITTV	< -0.25
GPHSSRHALR	< -0.25

Substance	growth estimate
LVCGTDWRGVSRPVGRL	< -0.25
PIWGPP	< -0.25
LAHIHMGSPSCRGQGGSNVE	< -0.25
VHPHCHRLFGEILTWTFSCR	< -0.25
DMA	< -0.25
LQTNAWSLELELPETLTLLG	< -0.25
IRCAL	< -0.25
IVILQVRGA	< -0.25
LIRGQHSVWSLRHSSNVMPR	< -0.25
HSVSAVCGSLLQYNAYVSLE	< -0.25
RGGRIS	< -0.25
TTFRLQQGERITCAVRIKPL	< -0.25
ISIAVPTRDRRIWSLRIWST	< -0.25
LSVQGGSWA	< -0.25
NVLRAAG	< -0.25
LEEELLYGGEARRCLAASTM	< -0.25
DRLSQSWEGTPQGA	< -0.25
DIATY	< -0.25
GPRGSTKQDFHNAGHSGTPR	< -0.25
LRTRQKLVVARAGGMRPSHG	< -0.25
GCLSQICSGFYD	< -0.25
VRRSDGNTPEGMTVSFSTRA	< -0.25
QREP	< -0.25
VFVVTFELLGNIHRVQRSIG	< -0.25
